# Values quoted from earlier work, collected in patent publication US20250352559A1, “Transdermal Delivery Composition for Delivery of at least one Glucose Controlling Agent, and Method of Delivering at least one Glucose Controlling Agent” (Skinvisible Pharmaceuticals, Inc., priority 2024, published 2025).
# For at least one compound, name, drawing or mass did not settle the structure.
# System: overweight or obese patients without type 2 diabetes
# Conditions: liraglutide 3.0 mg/day for one year, cited from earlier work
compound,measurement,setting,value
CCCCCCCCCCCCCCCC(=O)N[C@@H](CCC(=O)NCCCC[C@H](NC(=O)[C@H](C)NC(=O)[C@H](C)NC(=O)[C@H](CCC(N)=O)NC(=O)CNC(=O)[C@H](CCC(=O)O)NC(=O)[C@H](CC(C)C)NC(=O)[C@H](Cc1ccc(O)cc1)NC(=O)[C@H](CO)NC(=O)[C@H](CO)NC(=O)[C@@H](NC(=O)[C@H](CC(=O)O)NC(=O)[C@H](CO)NC(=O)[C@@H](NC(=O)[C@H](Cc1ccccc1)NC(=O)[C@@H](NC(=O)CNC(=O)[C@H](CCC(=O)O)NC(=O)[C@H](C)NC(=O)[C@@H](N)Cc1cnc[nH]1)[C@@H](C)O)[C@@H](C)O)C(C)C)C(=O)N[C@@H](CCC(=O)O)C(=O)N[C@@H](Cc1ccccc1)C(=O)N[C@H](C(=O)N[C@@H](C)C(=O)N[C@@H](Cc1c[nH]c2ccccc12)C(=O)N[C@@H](CC(C)C)C(=O)N[C@H](C(=O)N[C@@H](CCCNC(=N)N)C(=O)NCC(=O)N[C@@H](CCCNC(=N)N)C(=O)NCC(=O)O)C(C)C)[C@@H](C)CC)C(=O)O [liraglutide],metabolic parameters,,"improved several metabolic parameters, including waist circumference, blood pressure, and lipid profiles"
same,mean weight loss,placebo 2.6 kg,8.0 kg
